# Data: PubChem BioAssay (NCATS)
# This list was built around the results that the source calls inconclusive (neither active nor inactive); the mix of calls is not that of the screen. Where the call is inconclusive, the potency comes from a doubtful curve fit. Active and inactive are the calls of the source. The call rests on the fitted dose curve; in most records, active means well fitted cell-killing curve with a large enough effect; inconclusive means small, poorly fitted or top-dose-only effect, or effect the other way; inactive means no such curve, though single readings can be large or run the other way.
# Test: Quantitative High-Throughput drug screen in 47 multiple myeloma cell lines against the NCATS MIPE library collection: Karpas417_ECACC cell viability assay (AID 1918961)
# Settings: Karpas417 myeloma viability, CellTiter-Glo ATP luminescence, 48 h; series mostly up to 45.8 µM
# Description: PI: Beverly A. Mock Ph.D.
# Laboratory of Cancer Biology and Genetics,
# Center for Cancer Research, National Cancer Institute,
# National Institute of Health, Bethesda, Maryland
# Drug resistance and disease progression are common in multiple myeloma (MM) patients, underscoring the need for new therapeutic combinations. […] We hypothesized that effective combinations would reduce MYC expression and enhance p16 activity. […] These preclinical data identify potentially useful drug combinations for evaluation in drug-resistant MM and reveal potential mechanisms of combined drug sensitivity.
# Described herein is the primary MIPE qHTS used to cherrypick compounds. Validated compounds were then further tested for potential synergistic activiy.
# [1] Peat TJ, Gaikwad SM, Dubois W, Gyabaah-Kessie N, Zhang S, Gorjifard S, Phyo Z, Andres M, Hughitt VK, Simpson RM, Miller MA, Girvin AT, Taylor A, Williams D, D'Antonio N, Zhang Y, Rajagopalan A, Flietner E, Wilson K, Zhang X, Shinn P, Klumpp-Thomas C, McKnight C, Itkin Z, Chen L, Kazandijian D, Zhang J, Michalowski AM, Simmons JK, Keats J, Thomas CJ, Mock BA. Drug combinations identified by high-throughput screening promote cell cycle transition and upregulate Smad pathways in myeloma. Cancer Lett. 2023 Aug 1;568:216284. doi: 10.1016/j.canlet.2023.216284. Epub 2023 Jun 24. PMID: 37356470; PMCID: PMC10408729.
# SEQUENCE No. (e.g., 1, 2, 3, etc.); […] (e.g., Cells, Incubation, Reagent, etc.); VALUE and DESCRIPTION.
# 1; Cells; 5 uL; white, solid bottom 1536-well Greiner assay plate.
# 2; Compounds; 23 nL; Kalypsis pin tool (Wako USA) equipped with a 1536-well pin head to transfer to the assay plates.
# 3; Incubation; 48 hours; 37C incubation.
# 4; Reagent;5uL; CellTiter Glo (Promega).
# 5; Detector; 425V; Luminescence; Viewlux PerkinElmer.
# NOTES (numbers refer to Sequence numbers above)
# 1. The cell-based screening methods employed in this study were like those previously published. Briefly, the corresponding myeloma cell lines were screened in 1,536-well plates with 500 cells, 5-uL per well for inhibition of cell viability (assessed by measuring ATP levels with CellTiterGlo).
# 2. NCATS MIPE 4.0 library of approved and investigational drugs were added using the Kalypsis pin tool. Wells treated with DMSO only for 100% viability and media only wells for 0% viability were used as controls.
# 3. The assay plates were covered and incubated for 48 hours in a 37C, 5% CO2 incubator with controlled humidity.
# 4. After 48 hours, CellTilter-GloTM luminescent substrate mix (Promega) reagent was added to the assay plate and plates we incubated for 5 min at room temperature.
# 5. Signal was measured as median relative luminescence units on a ViewLux (PerkinElmer) multiplate reader.
# [1] Heske CM, Davis MI, Baumgart JT, Wilson K, Gormally MV, Chen L, Zhang X, Ceribelli M, Duveau DY, Guha R, Ferrer M, Arnaldez FI, Ji J, Tran HL, Zhang Y, Mendoza A, Helman LJ, Thomas CJ. Matrix Screen Identifies Synergistic Combination of PARP Inhibitors and Nicotinamide Phosphoribosyltransferase (NAMPT) Inhibitors in Ewing Sarcoma. Clin Cancer Res. 2017 Dec 1;23(23):7301-7311. doi: 10.1158/1078-0432.CCR-17-1121. Epub 2017 Sep 12. PMID: 28899971; PMCID: PMC6636827.
# Potency means the concentration at half of the fitted maximal effect.
row,Structure (SMILES),Potency
1,O=c1c(-c2ccc(O)cc2)coc2cc(O)ccc12,inactive
2,COc1ccc2c3c1OC1C[C@@H](O)C=C[C@@]31CCN(C)C2 (stereo not given in full),"inconclusive: 7.43 µM [rising, partial curve, poor fit]"
3,CO[C@H]1C(=O)[C@]2(C)[C@@H](OC)C[C@H]3OC[C@@]3(OC(C)=O)[C@H]2[C@H](OC(=O)c2ccccc2)[C@]2(O)C[C@H](OC(=O)[C@H](O)[C@@H](NC(=O)OC(C)(C)C)c3ccccc3)C(C)=C1C2(C)C,"inconclusive: 0.0019 µM [cytotoxic, full curve, poor fit]"
4,O=C(O)c1ccccc1C(=O)Nc1ccc(-c2ccccc2)cc1,"inconclusive: 4.69 µM [rising, partial curve, poor fit]"
5,N#Cc1ccc(NC(=O)Nc2ccccc2Br)c2n[nH]nc12,"inconclusive: 10.5 µM [cytotoxic, partial curve, poor fit]"
6,O=C1NC(=O)C(=Cc2ccc3nccnc3c2)S1,"inconclusive: 16.2 µM [rising, partial curve, poor fit]"
7,Clc1ccc(C(Cn2ccnc2)OCc2ccc(Sc3ccccc3)cc2)c(Cl)c1 (stereo not given),"inconclusive: 33.2 µM [cytotoxic, partial curve, poor fit]"
8,Nc1ccccc1NC(=O)c1ccc(CNC(=O)OCc2cccnc2)cc1,active: 0.469 µM
9,O=C(O)C=Cc1ccc(O)c(O)c1,active: 14.8 µM
10,O=Nc1c(-c2c(O)[nH]c3cc(Br)ccc23)[nH]c2ccccc12,"inconclusive: 5.26 µM [cytotoxic, partial curve, poor fit]"
11,C=C(c1ccc(C(=O)O)cc1)c1cc2c(cc1C)C(C)(C)CCC2(C)C,"inconclusive: 3.72 µM [rising, full curve, poor fit]"
12,CCCn1c(=O)c2[nH]c(C34CC5CC3C[C@@H](C5)C4)nc2n(CCC)c1=O,"inconclusive: 5.26 µM [cytotoxic, full curve, poor fit]"
13,C=CC(=O)Nc1cc2c(Nc3ccc(F)c(Cl)c3)ncnc2cc1C#CC(C)(C)N1CCN(C)CC1,active: 0.59 µM
14,CN(C)c1ccc(Nc2nc(N)n(C(=O)c3c(F)cccc3F)n2)cc1,active: 1.66 µM
15,O=c1[nH]cc(F)c(=O)[nH]1,"inconclusive: 14.8 µM [cytotoxic, partial curve, poor fit]"
16,CC[N+](CC)(CC)CCOc1cccc(OCC[N+](CC)(CC)CC)c1OCC[N+](CC)(CC)CC,"inconclusive: 0.0148 µM [cytotoxic, full curve, poor fit]"
17,NS(=O)(=O)c1cc(C(=O)O)c(NCc2ccco2)cc1Cl,"inconclusive: 18.7 µM [rising, partial curve, poor fit]"
18,COc1cccc(-c2ccc(NC(=O)C3=C(C(=O)O)CCC3)c(F)c2)c1,"inconclusive: 0.0372 µM [cytotoxic, full curve, poor fit]"
19,O=C1c2ccccc2-[n+]2ccc3c([nH]c4ccccc43)c21,active: 8.33 µM
20,COc1ccc(-c2cc(=O)c3c(O)cc(O)cc3o2)cc1O,"inconclusive: 6.62 µM [cytotoxic, partial curve, poor fit]"

# Retrieved one by one from the list above, 2 records:
row,Structure (SMILES),Potency
2,COc1ccc2c3c1OC1C[C@@H](O)C=C[C@@]31CCN(C)C2 (stereo not given in full),"inconclusive: 7.43 µM [rising, partial curve, poor fit]"
7,Clc1ccc(C(Cn2ccnc2)OCc2ccc(Sc3ccccc3)cc2)c(Cl)c1 (stereo not given),"inconclusive: 33.2 µM [cytotoxic, partial curve, poor fit]"

# Following part

row,Structure (SMILES),Potency
1,O[C@@H](COc1cccc2ncccc12)CN1CCN(C2c3ccccc3[C@@H]3[C@H](c4ccccc42)C3(F)F)CC1 (stereo not given in full),inactive
2,CNS(=O)(=O)CCc1ccc2[nH]cc(C3CCN(C)CC3)c2c1,active: 16.6 µM
3,O=C(Nc1ccc([N+](=O)[O-])cc1Cl)c1cc(Cl)ccc1O,active: 0.59 µM
4,O=[N+]([O-])c1ccc(Nc2ccccc2-c2ccccc2)c2nonc12,"inconclusive: 18.7 µM [cytotoxic, partial curve, poor fit]"
5,O=c1cc(N2CCOCC2)oc2c(-c3ccccc3)cccc12,"inconclusive: 0.526 µM [cytotoxic, full curve, poor fit]"
6,Cc1csc(NC(=O)c2sc3nc4c(c(C(F)(F)F)c3c2N)CCC4)n1,"inconclusive: 0.0019 µM [rising, full curve, poor fit]"
7,Oc1ccc2ccccc2c1SSc1c(O)ccc2ccccc12,"inconclusive: 4.18 µM [cytotoxic, partial curve, poor fit]"
8,O=C(NOCC1CC1)c1ccc(F)c(F)c1Nc1ccc(I)cc1Cl,"inconclusive: 0.662 µM [cytotoxic, full curve, poor fit]"
9,COc1ccccc1OCC(O)CN1CCN(CC(=O)Nc2c(C)cccc2C)CC1 (stereo not given),"inconclusive: 10.5 µM [rising, partial curve, poor fit]"
10,Cc1ccc(-n2nc(C(C)(C)C)cc2NC(=O)Nc2ccc(OCCN3CCOCC3)c3ccccc23)cc1,"inconclusive: 5.9 µM [cytotoxic, partial curve, poor fit]"
11,CS(=O)c1ccc(-c2nc(-c3ccc(F)cc3)c(-c3ccncc3)[nH]2)cc1 (stereo not given),active: 3.82 µM
12,N[C@H](CSC(c1ccccc1)(c1ccccc1)c1ccccc1)C(=O)O,"inconclusive: 0.0132 µM [cytotoxic, full curve, poor fit]"
13,Cc1cc(C=c2sc3nc4ccccc4n3c2=O)c(C)n1-c1ccccc1,"inconclusive: 6.62 µM [rising, partial curve, poor fit]"
14,CC(C(=O)O)c1ccc(-c2ccccc2)c(F)c1 (stereo not given),"inconclusive: 0.132 µM [cytotoxic, full curve, poor fit]"
15,Cn1ccc2cc3c(cc21)CCN3C(=O)Nc1cccnc1,"inconclusive: 16.6 µM [cytotoxic, partial curve, poor fit]"
16,COC(=O)Nc1nc2ccc(Sc3ccccc3)cc2[nH]1,"inconclusive: 0.0418 µM [cytotoxic, full curve, poor fit]"
17,O=c1oc2cc(O)ccc2s1,"inconclusive: 23.5 µM [cytotoxic, partial curve, poor fit]"
18,O=C(O)[C@H](CC(=O)N1C[C@@H]2CCCC[C@H]2C1)Cc1ccccc1,"inconclusive: 11.8 µM [rising, partial curve, poor fit]"
19,CCCc1nc2c(C)cc(-c3nc4ccccc4n3C)cc2n1Cc1ccc(-c2ccccc2C(=O)O)cc1,"inconclusive: 2.09 µM [cytotoxic, full curve, poor fit]"
20,COc1ccc(C2Sc3ccccc3N(CCN(C)C)C(=O)C2OC(C)=O)cc1 (stereo not given),"inconclusive: 18.7 µM [rising, partial curve, poor fit]"
